Binding data for 1 molecule are collected here from patent publication US20190381127A1, “COMBINATION THERAPY WITH A6, CHEMOTHERAPEUTIC AGENTS, RADIATION THERAPY, OR A COMBINATION THEREOF FOR THE TREATMENT OF CANCER” (Splash Pharmaceuticals, Inc., priority 2016, published 2019).

The chains behind the UniProt entries cited, without tags or fusion partners. Residues count along the entry.
UniProt P16070, residues 21-742: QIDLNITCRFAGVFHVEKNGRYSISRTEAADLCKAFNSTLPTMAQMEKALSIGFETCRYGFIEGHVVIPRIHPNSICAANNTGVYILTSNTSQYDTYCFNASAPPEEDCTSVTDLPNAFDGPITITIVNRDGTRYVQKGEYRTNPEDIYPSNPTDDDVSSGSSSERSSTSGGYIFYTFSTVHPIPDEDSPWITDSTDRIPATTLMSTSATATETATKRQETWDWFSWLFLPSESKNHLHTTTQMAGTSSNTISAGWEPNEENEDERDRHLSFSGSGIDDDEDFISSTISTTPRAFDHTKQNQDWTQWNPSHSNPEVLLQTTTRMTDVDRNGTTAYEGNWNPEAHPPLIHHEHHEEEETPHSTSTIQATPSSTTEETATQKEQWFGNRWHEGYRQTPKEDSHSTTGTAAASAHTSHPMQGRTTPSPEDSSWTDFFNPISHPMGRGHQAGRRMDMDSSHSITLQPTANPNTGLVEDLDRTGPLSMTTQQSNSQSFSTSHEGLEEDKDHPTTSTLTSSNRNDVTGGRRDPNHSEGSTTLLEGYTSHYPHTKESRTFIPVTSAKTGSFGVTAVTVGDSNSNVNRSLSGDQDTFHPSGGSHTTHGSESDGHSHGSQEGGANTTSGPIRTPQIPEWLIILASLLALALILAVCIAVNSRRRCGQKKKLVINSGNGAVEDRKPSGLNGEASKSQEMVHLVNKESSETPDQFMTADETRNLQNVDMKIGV

These are yes or no findings as the source states them, for the method shown. Some binding calls cover weakened binding; strength is not graded here.

This assay concerns the target CD44 on human ovarian SKOV3 cells (human) (UniProt P16070). Description: cross-linking of A6 to SKOV3 cells, immunoprecipitation and immunoblot.

In the case of KPSSPPEE (N-terminal acetyl (Ac-), C-terminal amide (-NH2)) [A6 peptide (Ac-KPSSPPEE-NH2)], the binding result was “binds”.
